Test results published in patent US11865109B2 (NOVARTIS AG, priority 2019, dated 2024).
At least one read-out could not be matched to a standard name with certainty.

Assay: ADME study: PK of total radioactivity in blood and plasma (LSC)
Format: in vivo, human
Conditions: single oral 400 mg [14C]Compound 1 at steady state
Protocol: Six healthy male subjects of aged 18 to 55 years (inclusive) were included in this study.
The study consisted of a 28-day screening period (including baseline period of 1 day) and 12 days of treatment period. The study design is depicted in FIG. 10.
All treatment administrations (Day 1 to Day 12) occurred approximately 30 minutes following consumption of a standardized meal. Treatments were administered with ˜240 mL water as 4×100 mg hard gelatin capsules. The radioactive release criteria was met and all the subjects were released from the study site on Day 14 afternoon.
The PK blood sample collection schedule was appropriate to characterize the PK of Compound 1 and any circulating major metabolites. The urine and feces collection schedule was set up adequately to ensure complete excretion of radioactivity. […]
Blood, plasma, urine, and feces samples were obtained and evaluated in all subjects. […] If the co-efficient of variation of replicate radioactivity measurements was >20%, the sample was re-homogenized and/or reanalyzed.
Single-dose blood and plasma PK parameters (Cmax, Tmax, AUClast and AUCinf), for total radioactivity were derived from plasma and blood concentration versus sampling time data. PK parameters were determined using non-compartmental method(s) with Phoenix WinNonLin (Version 6.4) for total radioactivity.

COc1nc(C(=O)NC[C@](C)(O)C(F)(F)F)c(N)cc1C(F)(F)F [[14C]Compound 1]
Mean terminal half-life of total radiolabeled components (radioactivity) in blood: 15.4 h
Mean terminal half-life of total radiolabeled components (radioactivity) in plasma: 20.6 h
